Data: PMC12574041
No constants are given. Whether binding was seen depends on the method and setting. In cells and extracts the contact can be indirect. Some entries that bind do so weakly or less than the wild type.

By UniProt entry, the sequences of proteins in these tests, tags left out.
UniProt O76083: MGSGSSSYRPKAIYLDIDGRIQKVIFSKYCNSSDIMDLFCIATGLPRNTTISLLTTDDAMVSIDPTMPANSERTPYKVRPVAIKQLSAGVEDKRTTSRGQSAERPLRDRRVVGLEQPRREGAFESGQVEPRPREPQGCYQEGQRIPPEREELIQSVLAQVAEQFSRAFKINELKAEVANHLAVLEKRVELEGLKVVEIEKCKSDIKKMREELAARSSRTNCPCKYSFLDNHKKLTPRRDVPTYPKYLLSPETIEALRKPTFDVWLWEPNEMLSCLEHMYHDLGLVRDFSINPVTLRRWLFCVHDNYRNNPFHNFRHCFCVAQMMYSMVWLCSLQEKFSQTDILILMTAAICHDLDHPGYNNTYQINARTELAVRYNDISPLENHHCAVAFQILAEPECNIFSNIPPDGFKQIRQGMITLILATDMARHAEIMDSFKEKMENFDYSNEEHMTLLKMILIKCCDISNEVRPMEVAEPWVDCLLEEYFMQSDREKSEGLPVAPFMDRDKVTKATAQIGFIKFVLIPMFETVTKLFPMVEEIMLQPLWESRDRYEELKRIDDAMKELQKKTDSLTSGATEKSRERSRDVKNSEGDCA
UniProt Q13049: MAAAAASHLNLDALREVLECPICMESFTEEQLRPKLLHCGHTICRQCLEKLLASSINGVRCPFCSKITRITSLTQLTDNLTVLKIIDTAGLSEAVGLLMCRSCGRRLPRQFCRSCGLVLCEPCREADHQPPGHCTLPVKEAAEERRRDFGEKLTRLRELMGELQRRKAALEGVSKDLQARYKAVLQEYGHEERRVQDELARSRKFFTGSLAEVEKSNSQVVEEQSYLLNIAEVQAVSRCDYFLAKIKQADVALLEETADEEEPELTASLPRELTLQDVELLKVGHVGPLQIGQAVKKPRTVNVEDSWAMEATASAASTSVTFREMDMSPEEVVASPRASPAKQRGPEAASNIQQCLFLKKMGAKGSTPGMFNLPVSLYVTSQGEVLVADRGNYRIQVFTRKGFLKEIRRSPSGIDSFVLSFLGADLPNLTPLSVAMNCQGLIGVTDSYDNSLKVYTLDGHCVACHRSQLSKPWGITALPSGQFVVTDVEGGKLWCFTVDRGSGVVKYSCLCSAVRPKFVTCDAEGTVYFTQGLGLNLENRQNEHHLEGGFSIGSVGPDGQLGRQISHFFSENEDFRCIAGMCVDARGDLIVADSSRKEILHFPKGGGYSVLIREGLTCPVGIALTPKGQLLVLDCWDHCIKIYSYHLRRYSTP

Target: Phosphodiesterase 9 A (PDE9A) (human (endogenous in AGS and HGC27)) (UniProt O76083)
Assay: co-IP; endogenous proteins in AGS and HGC27 cell lysates; lysate incubated overnight with the primary antibody, then Protein A/G-PLUS Agarose beads for 4 h; eluates analysed by SDS-PAGE and WB; 4 °C

“tripartite motif 32 (TRIM32) (from UniProt Q13049 1-653)” was tested, and the binding was “binds”.
